No constants are given. Whether binding was seen depends on the method and setting. A result given as binding can be weak or reduced; the word gives no strength.
Legend:
Test in all cases: cryo-EM structure
[1] = molecular target: E. coli RNA polymerase σ70 subunit (E. coli) (UniProt P00579)
[2] = molecular target: E. coli RNA polymerase β subunit (E. coli) (UniProt P0A8V2)
[3] = molecular target: E. coli RNA polymerase α subunit (E. coli) (UniProt P0A7Z4)

Measured: binding

phage Mu late gene transcription activator C (from UniProt P06022)
binds: all assays above

Reference: doi:10.1101/2025.05.02.651988
